Assay results taken from patent US20190119385A1.
Results are given in words; binding and its absence hold for the method and conditions named. Some entries that bind do so weakly or less than the wild type.

Tests used:
[1] = biological target: human HLA-G expressed on cells (JEG-3 trophoblastic carcinoma, SKOV3, papillary thyroid carcinoma tissue) (human) (UniProt P17693); experiment: flow cytometry, hybridoma supernatant on JEG-3 cells
[2] = biological target: human HLA-G expressed on cells (JEG-3 trophoblastic carcinoma, SKOV3, papillary thyroid carcinoma tissue) (human) (UniProt P17693); experiment: flow cytometry screening of monoclonal antibodies to human HLA-G (FIG. 1)
[3] = biological target: HLA Class I Histocompatibility Antigen, alpha chain G antigen, recombinant, HIS Tag (MybioSource MBS717410) (human) (UniProt P17693); experiment: ELISA, hybridoma supernatant on antigen coated plates
[4] = biological target: human HLA-G expressed on cells (JEG-3 trophoblastic carcinoma, SKOV3, papillary thyroid carcinoma tissue) (human) (UniProt P17693); experiment: immunohistochemistry with antigen retrieval, papillary thyroid carcinoma tissue
[5] = biological target: human HLA-G expressed on cells (JEG-3 trophoblastic carcinoma, SKOV3, papillary thyroid carcinoma tissue) (human) (UniProt P17693); experiment: immunohistochemistry, papillary thyroid carcinoma section (FIG. 2A)

Measured: binding

B1: 3H11 (antibody, V domains shown)
VH: QVQLQESGAELVKPGASVKLSCTASGFNIKDTYMHWVKQRPEQGLEWIGRIDPANGNTKYDPKFQGKATITADTSSNTAYLQLSSLTSEDTAVYYCARSYYGGFAYWGQGTLVTVSA
VL: DIVLTQSPASLAVSLGQRATISCRASKSVSTSGYSYMHWYQQKPGQPPKLLIYLVSNLESGVPARFSGSGSGTDFTLNIHPVEEEDAATYYCQHSRELPRTFGGGTKLEIK
binds: [1] | [2] | [3]

B2: HLA-G 4E3 (antibody, V domains shown)
VH: EVQLQESGGGLVQPKGSLKLSCAAFGFTFNTYAMHWVRQAPGKGLEWVARIRSKSNNYATYYADSVKDRFTISRDDSQSMLSLQMNNLKTEDTAIYYCVRGGYWSFDVWGAGTTVTVSS
VL: DIVITQTTPSVPVTPGESVSISCRSSKSLLHSNGNTYLYWFLQRPGQSPQLLISRMSSLASGVPDRFSGSGSGTAFTLRISRVEAEDVGVYYCMQHLEYPYTFGGGTKLEIK
binds: [1] | [4] | [5] | [2] | [3]
